Values of other authors, collected in patent US20140316010A1, “COMPOSITION FOR THE TREATMENT OF DANDRUFF” (priority 2013, published 2014).
At least one structure is not confirmed: it was looked up by name or label, or the drawing left a doubt.

Conditions: per 1 gram of glycerol

OCC(O)CO [glycerol, Propanetriol]
water absorbed by 1 gram of glycerol: ~0.6 grams
